# Data reported in PubChem BioAssay AID1259415 (National Center for Advancing Translational Sciences (NCATS), 2018).
# Among all 410,000 compounds or so, about 18,000 (4.4%) were called active. This list was built around the results that the source calls inconclusive (neither active nor inactive); the mix of calls is not that of the screen. No stated cut-off is given here; in the data, active means activity change below about -60%; inconclusive means no clear call, values can overlap the other calls; inactive means above about -39%.
# Experiment: qHTS Assay for inhibitors of the human cytomegalovirus (HCMV)
# Details: HFF cells, HCMV-luciferase reporter, 72 h; at 57.5 µM; stronger effect = lower value
# Outline: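 Steps: HFFs plated, 16 h 37C; compounds added; HCMV-luciferase added to MOI 1 PFU/cell; 72 h 37C; OneGlo reagent, 5 min room temperature; luminescence read, normalized to controls.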
# On the % scale 0 is the no-effect control and ±100 the full control effect.
row,Structure (SMILES),"activity change, negative = inhibition"
1,Cc1ccc(NC(=O)NCCCN2CCOCC2)cc1,inconclusive: -59%
2,Cc1occc1C(=O)NCCCCc1ccccc1,inactive: -25.9%
3,Cn1c(Cl)cnc1C1CC(=O)c2cc(Cl)ccc2O1 (configuration not stated),active: -95.7%
4,O=C(COC(=O)c1ccccc1Br)NCCN1C(=O)CSC1=O,inactive: -10.6%
5,O=c1cc(CSCc2ccc(Cl)cc2)[nH]c(=O)[nH]1,inactive: 12.7%
6,COc1cc(/C=N/NC(=O)c2ccc3ccccc3c2)ccc1Oc1ccc([N+](=O)[O-])cn1,inconclusive: -43.3%
7,O=C(NCc1ccccn1)c1ccc(OC2CCN(Cc3ccc(F)cc3F)CC2)cc1,inconclusive: -48.2%
8,COc1ccc(N2CCN(C(=O)c3ccc(CS(=O)(=O)c4ccccc4C)o3)CC2)cc1,inactive: 2.5%
9,CCCN(c1ccccc1CC)S(=O)(=O)c1ccc2c(c1)CC(C)N2C(=O)C1CC1 (configuration not stated),active: -92.9%
10,C=CCc1cccc2cc(C(=O)Nc3ccc(CC(=O)O)cc3)c(=O)oc12,inconclusive: -53.1%
11,Cc1c(C(=O)Nc2cccc(S(=O)(=O)N3CCCC3)c2)oc2ccccc12,inconclusive: -45.2%
12,Cc1cccc(CN2C(=O)CN=C(c3ccccc3)c3ccccc32)c1,inconclusive: -48.4%
13,Nc1cc(-c2ccccc2)nn1Cc1ccc(Cl)cc1,inconclusive: -52.5%
14,CCS(=O)(=O)N1CC(=O)N(c2cccc(Cl)c2C)C(C)(C(=O)NC2CCCCC2)C1 (configuration not stated),inactive: 0%
15,Cc1cc(C)cc(NC(=O)c2c(C)nc3ccccn23)c1,inconclusive: -47.1%
16,CC(C)(C)c1cc(Br)ccc1OCC(=O)Nc1ncn[nH]1,inconclusive: -41.5%
17,O=C(COc1ncnc2sccc12)N1CCc2ccccc2C1,inconclusive: -40.5%
18,COc1cc(NS(=O)(=O)c2ccc(NC(=O)CCC(=O)O)cc2)nc(OC)n1,inactive: 32.3%
19,OC(CNc1ncnc2sccc12)c1ccccc1 (configuration not stated),inconclusive: -52%
20,O=C1CCCC2=C1C(c1ccccc1)NC(=S)N2 (configuration not stated),active: -103%
21,CCc1ccc(C(O)c2ncc(-c3ccccc3OC)[nH]2)cc1 (configuration not stated),inactive: -6.36%
22,O=C(Nc1ccc(F)cc1)c1ccc(-n2cnc3cccnc32)cc1,inconclusive: -58.4%

# Look-ups from above.
# Under activity change, negative = inhibition, O=C(NCc1ccccn1)c1ccc(OC2CCN(Cc3ccc(F)cc3F)CC2)cc1 has the entry inconclusive: -48.2%
# Under activity change, negative = inhibition, C=CCc1cccc2cc(C(=O)Nc3ccc(CC(=O)O)cc3)c(=O)oc12 has the entry inconclusive: -53.1%

# (more compounds)

row,Structure (SMILES),"activity change, negative = inhibition"
1,O=C1C2C3C=CC(CNS(=O)(=O)c4ccccc4[N+](=O)[O-])(O3)C2C(=O)N1c1ccccc1 (configuration not stated),inconclusive: -59.5%
2,Cc1ccc(N(C)C(=O)Cn2nc(Cc3ccncc3)c3ccccc3c2=O)cc1C,inconclusive: -49.2%
3,COCCn1c(C)cc(O)c(C(c2ccccc2)N2CCN(c3ccc(F)cc3)CC2)c1=O (configuration not stated),inconclusive: -40.9%
4,O=c1c2ccccc2nc(COc2ccccc2)n1/N=C/c1ccc(O)cc1O,active: -95.9%
5,CC(OC(=O)c1nc(-c2ccccc2)n(-c2ccccc2)n1)C(=O)Nc1cc(Cl)cc(Cl)c1 (configuration not stated),inconclusive: -47.5%
6,Cc1onc(-c2ccccc2)c1C(=O)c1c[nH]c(C(=O)NCc2ccccn2)c1,inconclusive: -49%
7,Cc1ccc(-c2nnc(SCC(N)=O)nc2-c2ccc(C)cc2)cc1,inconclusive: -44.7%
8,CCn1c2ccccc2c2cc(NC(=O)C(C)OC(=O)c3ccc(NC(=O)CC#N)cc3)ccc21 (configuration not stated),inconclusive: -42.2%
9,C=CCn1c(SC(C)C(=O)NCC2CCCO2)nnc1-c1ccc(OC)cc1 (configuration not stated),inconclusive: 0%
10,O=C(COC(=O)c1cc(Cl)ccc1O)Nc1ccc2c(c1)OCCO2,inactive: -0.419%
11,S=C(Nc1ccc2c(c1)OCO2)Nc1ccc2c(c1)OCO2,inconclusive: -51.7%
12,Nc1ccn([C@@H]2O[C@H](CNCc3cc(Cl)ccc3OCc3ccc(Cl)cc3)[C@@H](O)[C@H]2O)c(=O)n1,inactive: -20.6%
13,CC(C)(C)c1ccc(OCc2ccc(C(=O)N/N=C3\CC4CC=CC34)cc2)cc1 (configuration not stated),active: -68.2%
14,CC(=O)Nc1ccc(NC(=O)Cn2cnc3c(nnn3Cc3ccc(F)cc3)c2=O)cc1,inconclusive: -54%
15,CC(C)NC1(c2ccccc2)CCCCC1,inconclusive: -57.6%
16,COc1cc(Cn2c3ccc(NC(=O)NCc4ccc(F)cc4)cc3c(=O)n2C)ccc1F,inconclusive: -59.7%
17,COc1cccc(NC(=O)c2sc(-n3nc(C)c(Cc4ccccc4Cl)c3C)nc2C)c1,inactive: 59.9%
18,Cc1cc(N2CCN(C)CC2)nc2ccc(NC(=O)CCC(=O)N3CCN(c4ccc([N+](=O)[O-])cc4)CC3)cc12,active: -63.9%
19,COc1ccc2cc(CCNC(=O)c3cccc([N+](=O)[O-])c3)c(=O)[nH]c2c1,inconclusive: -57.1%
20,CC(C)(C)OC(=O)NNc1c2ccccc2nc2ccccc12,active: -89.2%
21,CN(c1ncnc(N)c1[N+](=O)[O-])C1CCCCC1,active: -94%
22,CCC(CC)NC(=O)CCCSc1nc2ccccc2[nH]1,inconclusive: -49.4%

row,Structure (SMILES),"activity change, negative = inhibition"
1,Nc1ccccc1C(=O)N/N=C1\C2CN3CCN(C2)CC1(c1ccccc1)C3,inactive: -1.58%
2,O=C(Nc1ccc(F)cc1)c1oc2ccccc2c1NC(=O)C1CC1,active: -60%
3,Cc1ccc2c(c1)N(C(C)C(=O)N1CCC3(CC1)OCCO3)C(=O)CO2 (configuration not stated),inconclusive: -40.9%
4,CC1=C2C3OC(=O)C(C)[C@@H]3CC[C@](C)(O)C2C2C3C4C5(C12)[C@H]1OC(=O)[C@@H](C)C1CC[C@]4(C)O[C@]5(C)[C@@H]3O (some centres not stated),inactive: -16.4%
5,CCC(C)Sc1cc(C)c(C#N)c2nc3ccccc3n12 (configuration not stated),inconclusive: -53.3%
6,CCOc1cc2[nH]c(=S)n(Cc3ccc(C(=O)N4CCN(C)CC4)cc3)c(=O)c2cc1OCC,active: -95.9%
7,O=C(Oc1ccccc1O)c1cccc2ccccc12,inconclusive: -46.9%
8,c1ccc2c(CN3CCN(C4CCCCC4)CC3)c[nH]c2c1,inactive: 20.7%
9,CC(=O)NC(c1ccc(F)c(F)c1)c1nc(-c2cccc(C(C)C)c2)cs1 (configuration not stated),inactive: 18.7%
10,CN=c1sc2ccccc2n1CC(O)c1ccccc1 (configuration not stated),inconclusive: -59.5%
11,Cc1cn2c(=O)cc(COC(=O)c3cccc(NC(=O)C(C)Oc4ccccc4)c3)nc2s1 (configuration not stated),active: -64.4%
12,O=C(NN=CC=Cc1ccccc1)C(O)C(O)C(=O)NN=CC=Cc1ccccc1 (configuration not stated),active: -99%
13,Cc1cc(/C=C(\C#N)C(=O)NCc2cccs2)c(C)n1-c1ccccc1F,inactive: 97%
14,C1=C(CCNc2nnnn2-c2ccccc2)CCCC1,inconclusive: -56%
15,CN(C)c1ccc(C2/C(=C(/O)c3ccc(Br)cc3)C(=O)C(=O)N2C)cc1 (configuration not stated),inactive: 16.6%
16,Cc1cc(Cl)ccc1NC(=S)NCCc1ccc(Cl)cc1,active: -83.1%
17,CCCCCC(=O)Nc1ccc(C(=O)CN2C(=O)NC3(CCCCCC3)C2=O)cc1,inconclusive: -46.5%
18,NC(=S)N/N=C1/CCSc2ccc3ccccc3c21,inconclusive: -59.6%
19,COc1ccccc1CCNC(=O)c1cc2c(=O)n3cccc(C)c3nc2n1C,inconclusive: -52.5%
20,COc1ccc(/C(C)=N/OCC(=O)Nc2nc3ccccc3s2)cc1,inconclusive: -49.1%
21,Cc1csc2nc(COC(=O)c3ccccc3NC(=O)c3ccccc3Cl)cc(=O)n12,inconclusive: -42.8%
22,S=c1[nH]nc(COc2ccc(Cl)cc2)n1Cc1ccccc1,inconclusive: -44.8%

row,Structure (SMILES),"activity change, negative = inhibition"
1,CC(C)(CCl)C(=O)Nc1ccc(Sc2ccc(F)cc2)cc1,inconclusive: -41.9%
2,Cc1ccc(C(=O)N/N=C\c2ccc([N+](=O)[O-])o2)cn1,inconclusive: -44.2%
3,COc1cc(/C=N/NC(=O)c2cc3c(ccc4ccccc43)o2)cc(OC)c1O,inconclusive: -47.6%
4,CCNC(=S)N1CCN(c2cccc(C(F)(F)F)c2)CC1,inconclusive: -57.3%
5,O=C(NCCCN1CCOCC1)c1ccc(Sc2ccccc2Cl)c([N+](=O)[O-])c1,inconclusive: -41.7%
6,Cc1ccc(S(=O)(=O)N(CC(=O)N2CCC(C)CC2)c2ccccc2)cc1,inactive: -28.2%
7,Cc1cc(CNCc2cn(C)nc2-c2ccc(Oc3ccccc3)cc2)on1,active: -67.8%
8,O=C(CCC(=O)OCC(=O)c1ccc(Cl)cc1)NC1CCCCC1,active: -105%
9,COc1ccc(C)cc1N=Nc1ccc(O)c2ncccc12,active: -100%
10,CCN1CCN(Cc2c3ccccc3cc3ccccc23)CC1,inactive: 6.72%
11,Cc1nn(-c2ccccc2)c2c1N(CCCC(=O)NCc1ccc(OC(C)C)cc1)C(=O)CS2,inconclusive: -41.1%
12,CC1CCCC(C)N1C(=O)CN1C(=O)c2ccccc2S1(=O)=O (configuration not stated),inconclusive: -40.5%
13,CC(C)(C)c1ccc(-n2ncc3c2CCCC3NC(=O)CCN2CCCO2)cc1 (configuration not stated),inconclusive: -43.4%
14,Cc1ccc2c(CC(=O)Nc3ccc(S(=O)(=O)N4CCC(C)CC4)cc3)coc2c1,inactive: 7.38%
15,CCCCc1ccc(NC(=O)CSc2nc(=O)n(CCN(CC)CC)c3c2CCC3)cc1,inactive: 9.17%
16,Cn1c(=O)c2c(ncn2CC(=O)OCCCC(=O)c2ccc(Br)cc2)n(C)c1=O,inconclusive: -47.6%
17,O=C1C2C3C=CC(CC3)C2C(=O)N1c1ccc(Cl)cc1 (configuration not stated),inactive: -15.1%
18,CCCn1c2ccccc2c2cnn(CC(=O)Nc3ccccc3OC)c(=O)c21,inconclusive: -47.6%
19,COc1ccc(CC(=O)NCc2ccccc2)cc1,inactive: 13.7%
20,CCOC(=O)c1sc(NC(=O)Nc2cccc(Cl)c2)cc1C,active: -95.2%
21,Cc1ccc(C(=O)COC(=O)CN2C(=O)C3C4CC(C(Br)C4Br)C3C2=O)cc1 (configuration not stated),inconclusive: -50.1%

# Taken from the listing, 6 compounds:
row,Structure (SMILES),"activity change, negative = inhibition"
1,CC(C)(CCl)C(=O)Nc1ccc(Sc2ccc(F)cc2)cc1,inconclusive: -41.9%
2,Cc1ccc(C(=O)N/N=C\c2ccc([N+](=O)[O-])o2)cn1,inconclusive: -44.2%
3,COc1cc(/C=N/NC(=O)c2cc3c(ccc4ccccc43)o2)cc(OC)c1O,inconclusive: -47.6%
4,CCNC(=S)N1CCN(c2cccc(C(F)(F)F)c2)CC1,inconclusive: -57.3%
5,O=C(NCCCN1CCOCC1)c1ccc(Sc2ccccc2Cl)c([N+](=O)[O-])c1,inconclusive: -41.7%
6,Cc1ccc(S(=O)(=O)N(CC(=O)N2CCC(C)CC2)c2ccccc2)cc1,inactive: -28.2%
